Reference: publication PMC4560694

What was measured:
[1] = molecular target: T1, YN-Pi04089 (Phytophthora infestans) (UniProt D0N0I9); assay: split reporter
T1 sequence: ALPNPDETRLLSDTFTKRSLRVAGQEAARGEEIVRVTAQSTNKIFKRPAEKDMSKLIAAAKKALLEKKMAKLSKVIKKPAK

[2] = molecular target: T2, GFP-Pi04089 (Phytophthora infestans) (UniProt D0N0I9); assay: co-IP
T2 sequence: T1 sequence

Substance	binding [1]	binding [2]
YC-StKRBP1 (Solanum tuberosum)	binds	
cMyc-StKRBP1 (Solanum tuberosum)		binds

Results are given in words; binding and its absence hold for the method and conditions named. Binding seen in cells or lysates may run through a third protein. Binding can be weak; no strength is given. For some assays here: Where a sequence is shown, tags or fusion partners need not be part of it.
